These are yes or no findings as the source states them, for the method shown. In cells and extracts the contact can be indirect. Binding calls can cover weak binding; strength is not graded here. Tags and fused reporters may be left off the sequences shown.
Key:
[1] = biological target: T1, 3-ketoacyl-CoA thiolase (3-KAT), Myc-tagged (UniProt P13437); experiment: co-IP; Myc-tagged ACADL, 3-KAT or ATP5A immunoprecipitated with anti-Myc-Tag antibody (5 µg, overnight, 4 °C) from cardiomyocytes in 20 mM Tris pH 7.5, 150 mM NaCl, 1 mM EDTA, 1% Triton X-100, protein A/G agarose; blots for Epac1 and CaMKII; cells stimulated or not with 8-CPT-AM (10 µM, 30 min), preincubated or not with CE3F4 (20 µM) or KN-93 (5 µM); IgG as control for IP
T1 sequence: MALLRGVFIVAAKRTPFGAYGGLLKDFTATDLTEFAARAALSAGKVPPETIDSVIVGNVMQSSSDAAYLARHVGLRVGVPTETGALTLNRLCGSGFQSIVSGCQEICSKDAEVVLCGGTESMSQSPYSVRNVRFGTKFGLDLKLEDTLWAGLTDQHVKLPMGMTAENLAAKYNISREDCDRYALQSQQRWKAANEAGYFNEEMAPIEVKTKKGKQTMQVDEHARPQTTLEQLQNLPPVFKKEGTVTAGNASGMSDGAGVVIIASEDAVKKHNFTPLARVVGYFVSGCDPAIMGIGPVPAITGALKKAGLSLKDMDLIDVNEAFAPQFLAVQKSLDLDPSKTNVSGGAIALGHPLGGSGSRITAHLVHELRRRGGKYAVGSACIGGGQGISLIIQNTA

[2] = biological target: T2, long-chain fatty acid acyl-CoA dehydrogenase (ACADL), wild type, Myc-tagged (UniProt P15650); experiment: as above
T2 sequence: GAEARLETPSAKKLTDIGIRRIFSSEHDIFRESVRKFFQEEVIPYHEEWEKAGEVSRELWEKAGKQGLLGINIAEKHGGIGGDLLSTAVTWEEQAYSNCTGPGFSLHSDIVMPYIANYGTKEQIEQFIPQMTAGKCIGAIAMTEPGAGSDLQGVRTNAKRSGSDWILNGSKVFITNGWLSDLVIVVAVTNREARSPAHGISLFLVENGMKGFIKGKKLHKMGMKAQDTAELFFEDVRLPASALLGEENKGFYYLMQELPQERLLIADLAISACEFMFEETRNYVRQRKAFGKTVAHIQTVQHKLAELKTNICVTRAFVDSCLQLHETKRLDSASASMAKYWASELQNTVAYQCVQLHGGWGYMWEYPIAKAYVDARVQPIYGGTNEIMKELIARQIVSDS

binding [1]: binds
binding [2]: binds
Substance: Ca2+/calmodulin-dependent protein kinase II (CaMKII) (enzyme)
